In patent US20080171343A1 (UNIVERSITY OF MANCHESTER, published 2008):
No constants are given. Whether binding was seen depends on the method and setting. Some results given as binding are weak or reduced against the parent protein; the word gives no strength.

Protein sequences, listed by entry. Tags and fused reporters are not part of them. Residues count along the entry.
UniProt P08603, residues 19-1231: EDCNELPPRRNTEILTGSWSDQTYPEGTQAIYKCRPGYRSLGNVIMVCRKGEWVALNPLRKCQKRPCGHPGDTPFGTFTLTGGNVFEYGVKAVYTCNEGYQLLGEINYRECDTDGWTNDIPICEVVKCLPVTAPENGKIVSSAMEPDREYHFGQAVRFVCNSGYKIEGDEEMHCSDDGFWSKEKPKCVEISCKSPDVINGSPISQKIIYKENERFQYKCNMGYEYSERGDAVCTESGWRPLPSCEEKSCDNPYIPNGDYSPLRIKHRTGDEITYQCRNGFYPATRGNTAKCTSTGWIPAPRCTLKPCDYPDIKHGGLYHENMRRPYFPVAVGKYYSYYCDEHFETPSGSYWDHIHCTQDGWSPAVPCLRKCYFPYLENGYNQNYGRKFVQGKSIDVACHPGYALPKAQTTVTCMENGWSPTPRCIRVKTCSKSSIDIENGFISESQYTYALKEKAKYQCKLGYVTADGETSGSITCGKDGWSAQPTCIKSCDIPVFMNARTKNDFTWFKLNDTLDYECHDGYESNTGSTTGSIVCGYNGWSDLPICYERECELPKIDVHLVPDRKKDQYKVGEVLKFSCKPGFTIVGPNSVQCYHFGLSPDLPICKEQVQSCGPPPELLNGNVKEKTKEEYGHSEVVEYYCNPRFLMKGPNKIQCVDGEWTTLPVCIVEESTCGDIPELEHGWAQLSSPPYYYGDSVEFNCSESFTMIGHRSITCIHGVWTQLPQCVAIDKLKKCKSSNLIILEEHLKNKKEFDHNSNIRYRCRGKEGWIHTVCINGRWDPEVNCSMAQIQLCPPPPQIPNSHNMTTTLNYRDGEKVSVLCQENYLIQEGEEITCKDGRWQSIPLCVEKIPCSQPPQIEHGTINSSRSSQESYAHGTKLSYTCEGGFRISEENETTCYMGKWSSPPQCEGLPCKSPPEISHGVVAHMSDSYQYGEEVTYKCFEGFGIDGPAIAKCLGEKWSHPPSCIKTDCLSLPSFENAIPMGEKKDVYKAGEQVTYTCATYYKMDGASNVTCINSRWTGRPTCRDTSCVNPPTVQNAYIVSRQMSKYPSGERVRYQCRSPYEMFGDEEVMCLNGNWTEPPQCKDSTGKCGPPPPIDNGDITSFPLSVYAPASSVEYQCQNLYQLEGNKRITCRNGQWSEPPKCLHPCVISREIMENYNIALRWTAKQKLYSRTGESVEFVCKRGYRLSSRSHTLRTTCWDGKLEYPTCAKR

What was measured:
[1] = target: T1, fibromodulin (bovine, UniProt P13605 19-376, glycosylated (N-linked oligosaccharides including keratan sulphate), as isolated); assay: plate assay: FMOD coated on microtitre wells at 10 ug/ml, unlabelled protein in fluid phase, detection with polyclonal anti-FH antibody, A490, background subtracted
T1 construct: Isolated from tissue; coated on microtitre plates at 10 ug/ml; also called FMOD; untreated (glycosylated) FMOD
T1 sequence (looked up): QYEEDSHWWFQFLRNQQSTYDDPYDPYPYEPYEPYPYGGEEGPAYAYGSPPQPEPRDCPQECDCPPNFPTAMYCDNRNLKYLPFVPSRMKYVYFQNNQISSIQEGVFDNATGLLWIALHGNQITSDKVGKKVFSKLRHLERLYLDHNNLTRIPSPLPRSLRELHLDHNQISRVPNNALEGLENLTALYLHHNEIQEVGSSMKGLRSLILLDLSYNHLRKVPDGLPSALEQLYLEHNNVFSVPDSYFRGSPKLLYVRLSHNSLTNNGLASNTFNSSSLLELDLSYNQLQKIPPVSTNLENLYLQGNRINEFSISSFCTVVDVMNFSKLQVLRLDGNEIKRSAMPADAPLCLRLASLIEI

[2] = target: T1, fibromodulin; assay: microtitre plate assay, FMOD coated, full length FH detected with polyclonal anti-FH antibody
[3] = target: T1, fibromodulin; assay: plate assay: untreated (glycosylated) FMOD coated on microtitre wells, full length FH in fluid phase, detection with polyclonal anti-FH antibody, A490

Measured: binding

full length Factor H (from UniProt P08603 19-1231)
binds: all assays above
